Assay results as given in the supplement of paper PMC10849652.
The list shows a part of the results.

Protein sequences, listed by entry. Tags and fused reporters are not part of them. Lines headed by an entry give the natural chain unless they say otherwise; changes in a name come on top.
UniProt Q969S8: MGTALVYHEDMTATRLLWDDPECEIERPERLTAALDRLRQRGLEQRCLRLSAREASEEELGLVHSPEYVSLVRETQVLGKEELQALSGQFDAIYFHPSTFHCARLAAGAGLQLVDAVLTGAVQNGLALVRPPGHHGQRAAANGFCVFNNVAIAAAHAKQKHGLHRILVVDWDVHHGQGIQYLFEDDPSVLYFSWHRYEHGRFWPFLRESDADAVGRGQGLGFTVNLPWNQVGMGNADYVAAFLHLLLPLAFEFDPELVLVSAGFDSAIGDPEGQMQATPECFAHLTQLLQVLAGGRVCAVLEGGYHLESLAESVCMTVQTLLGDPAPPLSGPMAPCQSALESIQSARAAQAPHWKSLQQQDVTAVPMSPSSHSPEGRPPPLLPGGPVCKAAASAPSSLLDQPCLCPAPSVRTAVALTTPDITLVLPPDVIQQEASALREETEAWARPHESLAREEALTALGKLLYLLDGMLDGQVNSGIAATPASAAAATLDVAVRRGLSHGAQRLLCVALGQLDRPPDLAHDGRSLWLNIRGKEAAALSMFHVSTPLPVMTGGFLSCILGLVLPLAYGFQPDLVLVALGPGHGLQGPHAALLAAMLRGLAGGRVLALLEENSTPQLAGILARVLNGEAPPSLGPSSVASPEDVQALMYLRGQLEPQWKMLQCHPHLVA
UniProt P51858: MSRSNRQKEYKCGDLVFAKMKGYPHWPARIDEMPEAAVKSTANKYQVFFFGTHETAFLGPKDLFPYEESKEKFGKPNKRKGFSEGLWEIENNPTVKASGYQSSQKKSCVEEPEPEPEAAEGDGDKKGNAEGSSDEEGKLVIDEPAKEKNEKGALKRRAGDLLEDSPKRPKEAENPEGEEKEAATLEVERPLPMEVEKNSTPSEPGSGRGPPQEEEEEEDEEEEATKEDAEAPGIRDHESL
UniProt P0C0S5, whole entry, looked up: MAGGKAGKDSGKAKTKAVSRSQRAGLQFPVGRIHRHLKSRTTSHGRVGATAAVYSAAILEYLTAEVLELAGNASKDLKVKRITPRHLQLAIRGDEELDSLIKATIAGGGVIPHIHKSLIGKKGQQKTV
UniProt P16403, whole entry, looked up: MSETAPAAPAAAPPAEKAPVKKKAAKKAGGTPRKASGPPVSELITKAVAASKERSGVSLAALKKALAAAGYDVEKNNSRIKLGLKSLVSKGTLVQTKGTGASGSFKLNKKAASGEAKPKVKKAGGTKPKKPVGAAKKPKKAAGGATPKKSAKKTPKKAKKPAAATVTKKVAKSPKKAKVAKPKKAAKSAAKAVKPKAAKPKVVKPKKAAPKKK
UniProt P49840: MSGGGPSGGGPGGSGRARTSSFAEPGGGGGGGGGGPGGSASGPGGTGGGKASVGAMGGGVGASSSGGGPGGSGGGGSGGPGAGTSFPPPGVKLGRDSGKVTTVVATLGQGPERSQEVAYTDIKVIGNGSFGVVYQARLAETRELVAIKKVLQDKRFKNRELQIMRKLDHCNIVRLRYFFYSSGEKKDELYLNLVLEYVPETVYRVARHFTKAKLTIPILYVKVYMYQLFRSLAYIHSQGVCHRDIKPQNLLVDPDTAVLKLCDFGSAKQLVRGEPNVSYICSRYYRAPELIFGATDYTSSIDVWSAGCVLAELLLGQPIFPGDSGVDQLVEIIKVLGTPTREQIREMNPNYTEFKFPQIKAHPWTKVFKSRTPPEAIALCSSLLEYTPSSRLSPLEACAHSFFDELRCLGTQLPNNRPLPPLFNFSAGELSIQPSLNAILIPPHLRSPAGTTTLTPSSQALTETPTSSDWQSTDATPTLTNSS
UniProt Q03013: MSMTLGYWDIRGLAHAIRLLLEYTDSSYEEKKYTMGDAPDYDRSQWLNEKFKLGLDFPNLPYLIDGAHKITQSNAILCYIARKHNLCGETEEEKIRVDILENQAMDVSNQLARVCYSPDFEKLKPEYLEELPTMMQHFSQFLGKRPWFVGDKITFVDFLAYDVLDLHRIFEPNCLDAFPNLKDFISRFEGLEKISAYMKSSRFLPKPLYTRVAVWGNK
UniProt P51610: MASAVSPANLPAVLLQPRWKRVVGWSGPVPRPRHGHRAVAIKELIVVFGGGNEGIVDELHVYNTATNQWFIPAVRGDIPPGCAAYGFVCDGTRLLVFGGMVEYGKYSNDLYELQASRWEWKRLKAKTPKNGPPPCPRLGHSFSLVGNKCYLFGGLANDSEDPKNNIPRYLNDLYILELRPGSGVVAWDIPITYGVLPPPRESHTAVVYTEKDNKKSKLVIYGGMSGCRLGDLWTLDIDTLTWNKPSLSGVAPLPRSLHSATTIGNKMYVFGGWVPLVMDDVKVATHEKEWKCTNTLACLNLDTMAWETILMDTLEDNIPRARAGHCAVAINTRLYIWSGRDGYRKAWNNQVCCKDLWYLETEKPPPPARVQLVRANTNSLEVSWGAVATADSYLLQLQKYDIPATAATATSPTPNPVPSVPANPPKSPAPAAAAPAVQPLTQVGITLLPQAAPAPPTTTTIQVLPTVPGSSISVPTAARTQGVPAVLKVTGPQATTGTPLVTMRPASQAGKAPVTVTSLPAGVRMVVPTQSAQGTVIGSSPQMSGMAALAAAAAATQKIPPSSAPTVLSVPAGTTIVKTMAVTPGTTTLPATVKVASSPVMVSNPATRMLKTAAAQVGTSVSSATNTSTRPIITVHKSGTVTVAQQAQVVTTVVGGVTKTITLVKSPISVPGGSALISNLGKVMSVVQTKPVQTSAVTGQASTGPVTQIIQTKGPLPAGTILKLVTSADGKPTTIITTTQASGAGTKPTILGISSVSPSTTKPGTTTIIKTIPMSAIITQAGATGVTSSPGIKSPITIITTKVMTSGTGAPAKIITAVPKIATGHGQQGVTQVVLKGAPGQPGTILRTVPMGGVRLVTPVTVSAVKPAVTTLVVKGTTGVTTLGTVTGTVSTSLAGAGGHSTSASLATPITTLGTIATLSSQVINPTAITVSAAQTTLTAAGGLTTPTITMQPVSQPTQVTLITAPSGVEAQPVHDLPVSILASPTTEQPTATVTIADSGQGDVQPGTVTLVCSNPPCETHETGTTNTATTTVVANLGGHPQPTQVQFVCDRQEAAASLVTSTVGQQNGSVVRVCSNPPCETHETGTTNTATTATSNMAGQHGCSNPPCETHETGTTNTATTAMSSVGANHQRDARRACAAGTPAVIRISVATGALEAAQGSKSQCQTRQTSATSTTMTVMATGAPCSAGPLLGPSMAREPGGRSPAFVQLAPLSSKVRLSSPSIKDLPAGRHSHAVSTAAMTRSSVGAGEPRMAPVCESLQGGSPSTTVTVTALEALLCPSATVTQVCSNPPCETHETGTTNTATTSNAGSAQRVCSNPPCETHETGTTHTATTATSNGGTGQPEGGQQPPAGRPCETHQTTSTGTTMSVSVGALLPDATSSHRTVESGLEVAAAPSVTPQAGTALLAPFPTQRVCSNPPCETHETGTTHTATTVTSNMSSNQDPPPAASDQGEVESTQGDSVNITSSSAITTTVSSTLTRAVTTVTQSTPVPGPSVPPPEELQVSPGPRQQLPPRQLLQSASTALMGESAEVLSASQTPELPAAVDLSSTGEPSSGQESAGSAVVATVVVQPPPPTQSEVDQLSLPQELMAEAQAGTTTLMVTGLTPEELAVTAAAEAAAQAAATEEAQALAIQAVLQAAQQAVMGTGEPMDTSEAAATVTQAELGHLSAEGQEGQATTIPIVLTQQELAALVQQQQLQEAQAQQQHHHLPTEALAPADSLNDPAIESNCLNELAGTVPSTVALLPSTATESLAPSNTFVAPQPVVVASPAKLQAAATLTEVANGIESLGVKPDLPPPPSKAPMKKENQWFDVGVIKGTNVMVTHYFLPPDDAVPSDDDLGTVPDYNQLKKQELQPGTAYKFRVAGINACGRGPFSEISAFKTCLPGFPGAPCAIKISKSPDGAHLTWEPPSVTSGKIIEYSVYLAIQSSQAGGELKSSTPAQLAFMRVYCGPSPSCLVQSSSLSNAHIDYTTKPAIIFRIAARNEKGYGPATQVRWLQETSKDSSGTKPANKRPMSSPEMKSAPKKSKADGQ
UniProt Q13889: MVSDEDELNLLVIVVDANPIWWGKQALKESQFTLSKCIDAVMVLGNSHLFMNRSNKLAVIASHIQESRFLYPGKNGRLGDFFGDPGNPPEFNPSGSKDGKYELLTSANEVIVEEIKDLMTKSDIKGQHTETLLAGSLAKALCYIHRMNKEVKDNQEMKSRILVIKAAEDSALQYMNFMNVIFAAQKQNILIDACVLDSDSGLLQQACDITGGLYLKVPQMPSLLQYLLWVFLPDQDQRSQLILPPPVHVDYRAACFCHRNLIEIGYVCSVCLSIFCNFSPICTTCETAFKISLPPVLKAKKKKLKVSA
UniProt Q96CS2: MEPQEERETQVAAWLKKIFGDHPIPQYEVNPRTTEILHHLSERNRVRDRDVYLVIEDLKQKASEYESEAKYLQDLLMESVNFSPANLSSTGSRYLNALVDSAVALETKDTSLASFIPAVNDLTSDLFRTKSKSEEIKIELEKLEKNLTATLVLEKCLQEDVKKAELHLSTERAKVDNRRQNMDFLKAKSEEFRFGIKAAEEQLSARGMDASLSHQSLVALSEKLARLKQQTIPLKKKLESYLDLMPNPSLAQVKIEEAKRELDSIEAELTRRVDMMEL
UniProt P35269, whole entry, looked up: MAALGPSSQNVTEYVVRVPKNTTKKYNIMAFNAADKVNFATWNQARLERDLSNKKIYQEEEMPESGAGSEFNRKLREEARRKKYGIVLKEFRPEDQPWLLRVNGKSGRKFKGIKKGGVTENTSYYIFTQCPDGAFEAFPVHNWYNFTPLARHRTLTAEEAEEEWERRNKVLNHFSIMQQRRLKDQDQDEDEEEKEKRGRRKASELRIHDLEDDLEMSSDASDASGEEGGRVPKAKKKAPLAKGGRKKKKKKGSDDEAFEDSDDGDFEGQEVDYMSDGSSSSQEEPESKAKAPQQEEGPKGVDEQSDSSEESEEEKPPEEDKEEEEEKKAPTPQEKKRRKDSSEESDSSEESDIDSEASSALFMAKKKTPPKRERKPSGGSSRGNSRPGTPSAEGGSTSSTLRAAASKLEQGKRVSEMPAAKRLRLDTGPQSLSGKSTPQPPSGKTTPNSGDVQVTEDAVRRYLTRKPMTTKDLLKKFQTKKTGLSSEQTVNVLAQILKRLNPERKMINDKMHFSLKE
UniProt P52655, whole entry, looked up: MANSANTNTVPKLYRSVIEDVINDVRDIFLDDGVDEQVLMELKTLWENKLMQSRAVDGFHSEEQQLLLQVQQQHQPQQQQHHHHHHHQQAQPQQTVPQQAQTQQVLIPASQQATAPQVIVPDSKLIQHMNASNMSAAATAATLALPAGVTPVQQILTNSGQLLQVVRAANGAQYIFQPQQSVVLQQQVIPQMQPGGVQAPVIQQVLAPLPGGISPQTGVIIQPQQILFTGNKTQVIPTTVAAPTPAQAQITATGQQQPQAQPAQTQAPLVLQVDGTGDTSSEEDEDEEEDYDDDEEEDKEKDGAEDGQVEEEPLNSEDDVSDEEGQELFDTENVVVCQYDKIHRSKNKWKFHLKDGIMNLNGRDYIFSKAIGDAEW
UniProt Q969Y2: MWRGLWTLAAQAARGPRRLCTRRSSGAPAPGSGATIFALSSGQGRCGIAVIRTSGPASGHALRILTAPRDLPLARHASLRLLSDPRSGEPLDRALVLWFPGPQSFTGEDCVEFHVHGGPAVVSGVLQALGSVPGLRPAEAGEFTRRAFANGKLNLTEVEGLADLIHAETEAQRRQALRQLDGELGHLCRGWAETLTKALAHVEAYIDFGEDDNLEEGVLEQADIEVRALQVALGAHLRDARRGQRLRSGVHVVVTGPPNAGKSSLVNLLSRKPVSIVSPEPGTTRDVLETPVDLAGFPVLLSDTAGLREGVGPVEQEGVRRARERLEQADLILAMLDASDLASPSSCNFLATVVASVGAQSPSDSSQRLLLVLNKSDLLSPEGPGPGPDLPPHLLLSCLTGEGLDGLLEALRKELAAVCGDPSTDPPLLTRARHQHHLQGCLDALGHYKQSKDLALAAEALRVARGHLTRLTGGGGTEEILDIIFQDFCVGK
UniProt Q13322: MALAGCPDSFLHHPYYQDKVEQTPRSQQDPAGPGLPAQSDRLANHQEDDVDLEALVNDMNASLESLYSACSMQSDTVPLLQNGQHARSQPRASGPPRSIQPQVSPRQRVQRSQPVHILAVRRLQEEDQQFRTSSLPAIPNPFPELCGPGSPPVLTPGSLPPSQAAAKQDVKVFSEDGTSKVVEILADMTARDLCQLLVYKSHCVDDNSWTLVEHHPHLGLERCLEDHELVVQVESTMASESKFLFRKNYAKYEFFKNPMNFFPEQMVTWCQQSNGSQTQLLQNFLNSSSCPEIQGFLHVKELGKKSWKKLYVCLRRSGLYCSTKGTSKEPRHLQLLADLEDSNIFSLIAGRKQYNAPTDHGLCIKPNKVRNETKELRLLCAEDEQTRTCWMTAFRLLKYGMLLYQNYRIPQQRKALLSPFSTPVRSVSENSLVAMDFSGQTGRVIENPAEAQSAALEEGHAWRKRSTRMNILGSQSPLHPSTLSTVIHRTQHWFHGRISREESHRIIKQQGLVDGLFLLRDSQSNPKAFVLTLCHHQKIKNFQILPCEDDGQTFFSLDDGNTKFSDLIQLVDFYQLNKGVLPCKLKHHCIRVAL

How the values were obtained:
Test in all cases: log2 fold change, soluble protein after heating vs DMSO (PISA); higher = thermal stabilisation; K562 lysate, 10 uM; active = over 0.2 and 3.5 SD of the protein, either way, in both replicates (recomputed)
erlotinib = compound: C#Cc1cccc(Nc2ncnc3cc(OCCOC)c(OCCOC)cc23)c1 [erlotinib]
Outline: (§1)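 Dounce homogenisation of K562 pellets in PBS pH 7.4 with 1 mM MgCl2 produced a crude extract, used at 1 mg/mL protein. Exposure to 10 μM compound lasted 30 min, and aliquots were then heated for 3 min across 48°C-58°C, pooled and brought to 0.5% NP-40 at 4°C. The supernatant after 21,000xg for 90 min was quantified by TMTpro 16plex LC-MS/MS with channel sums equalised. Duplicate values are given as log-two fold change in thermal stability relative to solvent controls.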

[1] = compound: C/C(=N\NC(=O)C1=CC(=CC=C1)S(=O)(=O)N2CCOCC2)/C3=C(C=CC(=C3)Cl)O
Outline: as §1

[2] = compound: C1=CC(=CC=C1C2=NC3=C(N2)C=C(C=C3)C(=O)N)OC4=CC=C(C=C4)Cl
Outline: as §1

[3] = compound: C1=CC2=C(C=CC(=C2)/C=C\3/C(=O)NC(=NCC4=CC=CS4)S3)N=C1
Outline: as §1

[4] = compound: C1=CC2=NC=CN=C2C=C1/C=C/3\C(=O)NC(=O)S3
Outline: as §1

[5] = compound: C1=CC=C(C=C1)C2=NC(=C(N2)C3=CC=NC=C3)C4=CC(=C(C=C4)Cl)O
Outline: as §1

[6] = compound: C1=CC=C2C(=C1)C3=NNC4=CC=CC(=C43)C2=O
Outline: as §1

[7] = compound: C1CCN(C1)C(=O)NC2=CC=CC(=C2)NC3=NC=C(C(=N3)NCCC4=CN=CN4)Br
Outline: as §1

[8] = compound: C1CN(CCC1(CC2=CC=C(C=C2)Cl)N)C3=NC=NC4=C3C=CN4
Outline: as §1

IRAK-1-4 Inhibitor I = compound: C1COCCN1CCN2C3=CC=CC=C3N=C2NC(=O)C4=CC(=CC=C4)[N+](=O)[O-] [IRAK-1-4 Inhibitor I]
Outline: as §1

ibrutinib = compound: C=CC(=O)N1CCC[C@@H](n2nc(-c3ccc(Oc4ccccc4)cc3)c3c(N)ncnc32)C1 [ibrutinib]
Outline: as §1

[9] = compound: CC(=O)c1cnc2ccc(-c3cc(Cl)c(O)c(Cl)c3)nc2c1N[C@H]1CC[C@H](CN(C)C)CC1
Outline: as §1

ralimetinib = compound: CC(C)(C)Cn1c(N)nc2ccc(-c3[nH]c(C(C)(C)C)nc3-c3ccc(F)cc3)nc21 [ralimetinib]
Outline: as §1

[10] = compound: CC(C)(O)CC(=O)NCCn1ccc2ncnc(Nc3ccc(Oc4cccc(C(F)(F)F)c4)c(Cl)c3)c21
Outline: as §1

[11] = compound: CC(C)C1=C2N=C(C=C(N2N=C1)NCC3=CC=CC=C3)NCCCCCCN
Outline: as §1

[12] = compound: CC1=C(C(CC(=O)N1)C2=CC=C(C=C2)C(F)(F)F)C(=O)NC3=C(C=C4C(=C3)C=NN4)F
Outline: as §1

[13] = compound: CC1=C(C2=C(C=C1)C(=O)C3=CC=CC=C3N2CCCN)C
Outline: as §1

[14] = compound: CC1=C(C=C(C=C1)NC(=O)C2=CC(=CC=C2)C(C)(C)C#N)NC3=CC4=C(C=C3)N=CN(C4=O)C
Outline: as §1

[15] = compound: CC1=C(C=C(C=C1)NC(=O)C2=CC(=CC=C2)N(C)C)NC(=O)C3=CC=C(C=C3)O
Outline: as §1

[16] = compound: CC1=CC=C(C=C1)SC2=C3C=C(SC3=CN=C2)C(=O)N
Outline: as §1

Measured: log2 fold change

HDAC10 (UniProt Q969S8)
inactive: erlotinib 0.064 | [1] 0.126 | [2] 0.035 | [3] -0.155 | [4] -0.201 | [5] -0.111 | [6] -0.043 | [7] -0.204 | [8] 0.053 | IRAK-1-4 Inhibitor I 0.016 | ibrutinib -0.038 | [9] 0.019 | ralimetinib -0.106 | [10] 0.144 | [11] -0.207 | [12] -0.11 | [13] -0.088 | [14] 0.037 | [15] 0.022 | [16] 0.017

HDGF (UniProt P51858)
inactive: erlotinib -0.02 | [1] 0.004 | [2] 0.008 | [3] -0.011 | [4] -0.011 | [5] 0.011 | [6] -0.016 | [7] 0.004 | [8] -0.011 | IRAK-1-4 Inhibitor I -0.008 | ibrutinib -0.033 | [9] 0.001 | ralimetinib -0.034 | [10] -0.003 | [11] -0.001 | [12] -0.027 | [13] -0.028 | [14] 0.004 | [15] -0.002 | [16] -0.012

H2AZ1 (UniProt P0C0S5)
inactive: erlotinib -0.006 | [1] 0.125 | [2] 0.125 | [3] -0.096 | [4] -0.005 | [5] 0.037 | [6] 0.058 | [7] 0.019 | [8] 0.008 | IRAK-1-4 Inhibitor I 0.053 | ibrutinib -0.002 | [9] -0.076 | ralimetinib -0.019 | [10] -0.023 | [11] -0.038 | [12] 0.025 | [13] 0.029 | [14] -0.045 | [15] 0.059 | [16] -0.014

H1-2 (UniProt P16403)
inactive: erlotinib -0.013 | [1] -0.03 | [2] 0.015 | [3] 0.02 | [4] -0.051 | [5] 0.026 | [6] 0.056 | [7] 0.047 | [8] 0.013 | IRAK-1-4 Inhibitor I -0.03 | ibrutinib 0.034 | [9] 0.031 | ralimetinib -0.026 | [10] -0.011 | [11] -0.014 | [12] -0.026 | [13] 0.06 | [14] -0.008 | [15] 0.004 | [16] -0.017

GSK3A (UniProt P49840)
inactive: erlotinib -0.029 | [1] -0.103 | [2] -0.034 | [3] 0.069 | [4] 0.066 | [5] 0.295 | [6] 0.182 | [7] 0.163 | [8] 0.018 | IRAK-1-4 Inhibitor I -0.014 | ibrutinib -0.01 | [9] 0.146 | ralimetinib 0.022 | [10] -0.001 | [11] -0.045 | [12] -0.017 | [13] 0.01 | [14] -0.109 | [15] -0.007 | [16] 0.207

GSS (UniProt P48637)
inactive: erlotinib -0.016 | [1] 0.002 | [2] 0.036 | [3] 0.006 | [4] -0.007 | [5] -0.003 | [6] 0.037 | [7] 0.032 | [8] 0.001 | IRAK-1-4 Inhibitor I -0.001 | ibrutinib 0.016 | [9] -0.021 | ralimetinib 0.009 | [10] -0.039 | [11] 0.008 | [12] 0.017 | [13] -0.002 | [14] -0.023 | [15] -0.028 | [16] -0.029

HDLBP, A0A024R4E5
inactive: erlotinib 0.043 | [1] 0.008 | [2] 0.02 | [3] -0.001 | [4] -0.024 | [5] -0.001 | [6] -0.046 | [7] -0.003 | [8] 0.004 | IRAK-1-4 Inhibitor I -0.005 | ibrutinib -0.034 | [9] -0.007 | ralimetinib 0.029 | [10] -0.014 | [11] -0.012 | [12] 0.007 | [13] -0.004 | [14] -0.009 | [15] 0.042 | [16] 0.003

H2AFY (UniProt O75367)
inactive: erlotinib 0.02 | [1] -0.026 | [2] 0.049 | [3] 0.069 | [4] 0.013 | [5] 0.069 | [6] 0.081 | [7] -0.051 | [8] -0.113 | IRAK-1-4 Inhibitor I 0.02 | ibrutinib 0.051 | [9] -0.056 | ralimetinib -0.025 | [10] -0.043 | [11] 0 | [12] -0.003 | [13] -0.148 | [14] -0.053 | [15] -0.033 | [16] -0.001

GSTM4 (UniProt Q03013)
inactive: erlotinib 0.006 | [1] -0.044 | [2] -0.073 | [3] -0.026 | [4] 0.141 | [5] 0.046 | [6] -0.025 | [7] -0.109 | [8] -0.025 | IRAK-1-4 Inhibitor I -0.064 | ibrutinib -0.139 | [9] -0.006 | ralimetinib -0.013 | [10] -0.051 | [11] -0.079 | [12] 0.096 | [13] 0.037 | [14] -0.136 | [15] -0.027 | [16] 0.042

HCFC1 isoform 4 (UniProt P51610)
inactive: erlotinib 0.003 | [1] -0.028 | [2] 0.038 | [3] -0.001 | [4] -0.017 | [5] -0.005 | [6] 0.037 | [7] -0.006 | [8] 0.004 | IRAK-1-4 Inhibitor I 0.02 | ibrutinib 0.009 | [9] -0.005 | ralimetinib 0.006 | [10] -0.015 | [11] 0.007 | [12] 0.001 | [13] -0.007 | [14] 0.008 | [15] 0.006 | [16] -0.021

GTF2H3 (UniProt Q13889)
inactive: erlotinib 0.056 | [1] -0.023 | [2] -0.076 | [3] -0.003 | [4] -0.065 | [5] 0.071 | [6] -0.021 | [7] -0.035 | [8] 0.031 | IRAK-1-4 Inhibitor I 0.096 | ibrutinib -0.012 | [9] 0.021 | ralimetinib -0.003 | [10] -0.045 | [11] -0.01 | [12] 0.033 | [13] -0.015 | [14] 0.023 | [15] 0.033 | [16] -0.021

HAUS1 (UniProt Q96CS2)
inactive: erlotinib 0.008 | [1] -0.014 | [2] 0.006 | [3] -0.005 | [4] 0.081 | [5] 0 | [6] -0.004 | [7] 0.002 | [8] -0.02 | IRAK-1-4 Inhibitor I -0.005 | ibrutinib 0.158 | [9] -0.037 | ralimetinib 0.012 | [10] -0.015 | [11] 0.012 | [12] -0.034 | [13] -0.004 | [14] 0.003 | [15] 0.005 | [16] -0.026

GTF2F1 (UniProt P35269)
inactive: erlotinib -0.003 | [1] -0.015 | [2] 0.014 | [3] 0.001 | [4] -0.04 | [5] -0.008 | [6] -0.005 | [7] -0.002 | [8] 0.005 | IRAK-1-4 Inhibitor I 0.032 | ibrutinib -0.008 | [9] 0 | ralimetinib -0.026 | [10] -0.024 | [11] -0.009 | [12] 0.014 | [13] 0.004 | [14] 0.01 | [15] -0.02 | [16] -0.012

GTF2A1 (UniProt P52655)
inactive: erlotinib 0.031 | [1] -0.008 | [2] 0.015 | [3] 0.026 | [4] -0.01 | [5] -0.038 | [6] -0.061 | [7] -0.04 | [8] -0.01 | IRAK-1-4 Inhibitor I 0.033 | ibrutinib -0.009 | [9] -0.046 | ralimetinib 0.015 | [10] -0.016 | [11] -0.036 | [12] -0.069 | [13] -0.021 | [14] -0.013 | [15] 0.008 | [16] -0.014

Pulled one by one from above (2):
HAUS1 (UniProt Q96CS2)
inactive: erlotinib 0.008 | [1] -0.014 | [2] 0.006 | [3] -0.005 | [4] 0.081 | [5] 0 | [6] -0.004 | [7] 0.002 | [8] -0.02 | IRAK-1-4 Inhibitor I -0.005 | ibrutinib 0.158 | [9] -0.037 | ralimetinib 0.012 | [10] -0.015 | [11] 0.012 | [12] -0.034 | [13] -0.004 | [14] 0.003 | [15] 0.005 | [16] -0.026

GTF2A1 (UniProt P52655)
inactive: erlotinib 0.031 | [1] -0.008 | [2] 0.015 | [3] 0.026 | [4] -0.01 | [5] -0.038 | [6] -0.061 | [7] -0.04 | [8] -0.01 | IRAK-1-4 Inhibitor I 0.033 | ibrutinib -0.009 | [9] -0.046 | ralimetinib 0.015 | [10] -0.016 | [11] -0.036 | [12] -0.069 | [13] -0.021 | [14] -0.013 | [15] 0.008 | [16] -0.014

Continued:

GTPBP3 isoform 2 (UniProt Q969Y2)
inactive: erlotinib 0.06 | [1] -0.061 | [2] -0.015 | [3] -0.081 | [4] -0.066 | [5] 0.05 | [6] -0.101 | [7] 0.123 | [8] -0.127 | IRAK-1-4 Inhibitor I 0.021 | ibrutinib -0.192 | [9] 0.063 | ralimetinib -0.035 | [10] -0.051 | [11] 0.014 | [12] -0.099 | [13] -0.052 | [14] -0.035 | [15] 0.044 | [16] 0.049

GRB10 (UniProt Q13322)
inactive: erlotinib 0.027 | [1] -0.004 | [2] -0.06 | [3] 0.013 | [4] -0.03 | [5] 0.016 | [6] 0.019 | [7] 0.073 | [8] 0.054 | IRAK-1-4 Inhibitor I -0.039 | ibrutinib 0.015 | [9] -0.039 | ralimetinib -0.006 | [10] -0.032 | [11] 0.014 | [12] 0.04 | [13] -0.015 | [14] -0.032 | [15] -0.006 | [16] 0.066
